Consider eight sequences from publication PMC2795164.

Chains of the proteins cited; added tags and fusions are not shown. Where a name states a change or a piece, a line headed by the entry shows the natural chain unless it says otherwise. Chains listed by the source or under a name are the forms on record and can include a tag or linker.
UniProt Q90WR8: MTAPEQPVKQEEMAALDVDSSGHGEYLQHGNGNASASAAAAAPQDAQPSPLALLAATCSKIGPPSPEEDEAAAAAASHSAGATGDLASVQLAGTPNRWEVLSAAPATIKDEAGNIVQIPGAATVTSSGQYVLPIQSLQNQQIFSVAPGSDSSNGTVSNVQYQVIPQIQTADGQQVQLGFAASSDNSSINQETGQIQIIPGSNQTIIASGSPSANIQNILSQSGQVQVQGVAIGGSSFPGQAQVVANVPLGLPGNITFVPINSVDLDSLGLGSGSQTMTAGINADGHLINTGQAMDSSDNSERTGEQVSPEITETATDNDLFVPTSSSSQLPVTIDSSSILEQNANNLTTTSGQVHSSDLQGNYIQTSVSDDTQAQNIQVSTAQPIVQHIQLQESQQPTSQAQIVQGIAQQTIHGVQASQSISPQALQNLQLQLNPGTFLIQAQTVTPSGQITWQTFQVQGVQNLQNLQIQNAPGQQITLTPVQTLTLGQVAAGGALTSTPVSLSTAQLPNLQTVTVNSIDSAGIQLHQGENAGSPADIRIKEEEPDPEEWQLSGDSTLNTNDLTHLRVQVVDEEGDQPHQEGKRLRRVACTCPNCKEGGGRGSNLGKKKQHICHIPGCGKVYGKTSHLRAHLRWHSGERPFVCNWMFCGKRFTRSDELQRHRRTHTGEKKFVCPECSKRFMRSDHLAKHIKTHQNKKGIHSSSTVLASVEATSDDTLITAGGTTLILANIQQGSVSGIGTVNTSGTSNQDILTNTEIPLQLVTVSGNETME
SP1, erythrocyte nuclear extract (Gallus gallus (chicken), adult erythrocytes), one chain, as listed by the source: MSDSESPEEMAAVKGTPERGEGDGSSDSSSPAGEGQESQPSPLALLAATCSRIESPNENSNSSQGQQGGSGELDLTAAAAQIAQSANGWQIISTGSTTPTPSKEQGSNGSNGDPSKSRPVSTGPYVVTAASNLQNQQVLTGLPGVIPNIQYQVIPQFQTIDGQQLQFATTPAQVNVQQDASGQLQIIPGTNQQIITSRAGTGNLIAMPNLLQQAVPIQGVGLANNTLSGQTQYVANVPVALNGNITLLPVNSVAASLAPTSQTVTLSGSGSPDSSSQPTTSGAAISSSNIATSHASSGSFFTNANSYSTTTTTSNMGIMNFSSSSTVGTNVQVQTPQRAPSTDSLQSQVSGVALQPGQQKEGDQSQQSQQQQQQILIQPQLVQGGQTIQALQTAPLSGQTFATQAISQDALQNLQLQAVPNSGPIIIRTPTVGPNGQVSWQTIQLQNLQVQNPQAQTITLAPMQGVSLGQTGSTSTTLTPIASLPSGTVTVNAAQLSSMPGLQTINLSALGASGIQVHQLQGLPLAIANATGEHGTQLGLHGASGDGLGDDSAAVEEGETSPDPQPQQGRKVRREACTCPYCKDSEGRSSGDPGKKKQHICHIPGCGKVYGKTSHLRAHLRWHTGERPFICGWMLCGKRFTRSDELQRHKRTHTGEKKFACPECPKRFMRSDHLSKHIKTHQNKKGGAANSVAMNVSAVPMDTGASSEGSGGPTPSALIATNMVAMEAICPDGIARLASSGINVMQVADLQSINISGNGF

For at least one entry, the source does not settle the construct or the ends of the probe. For some of these results: The comparison behind a weaker result is the experiment's own reference, which may not be listed here. For some of these results: At least one verdict rests on a figure or table, not on a statement of the authors. For some of these results: Where a protein sequence is shown, tags need not be part of it. For some of these results: Results from cells or extracts need not show a direct contact.

The target of data set [1] is T1, VEZF1 (BGP1) (Gallus gallus (chicken)) (UniProt I6LDD9).
T1 sequence (looked up): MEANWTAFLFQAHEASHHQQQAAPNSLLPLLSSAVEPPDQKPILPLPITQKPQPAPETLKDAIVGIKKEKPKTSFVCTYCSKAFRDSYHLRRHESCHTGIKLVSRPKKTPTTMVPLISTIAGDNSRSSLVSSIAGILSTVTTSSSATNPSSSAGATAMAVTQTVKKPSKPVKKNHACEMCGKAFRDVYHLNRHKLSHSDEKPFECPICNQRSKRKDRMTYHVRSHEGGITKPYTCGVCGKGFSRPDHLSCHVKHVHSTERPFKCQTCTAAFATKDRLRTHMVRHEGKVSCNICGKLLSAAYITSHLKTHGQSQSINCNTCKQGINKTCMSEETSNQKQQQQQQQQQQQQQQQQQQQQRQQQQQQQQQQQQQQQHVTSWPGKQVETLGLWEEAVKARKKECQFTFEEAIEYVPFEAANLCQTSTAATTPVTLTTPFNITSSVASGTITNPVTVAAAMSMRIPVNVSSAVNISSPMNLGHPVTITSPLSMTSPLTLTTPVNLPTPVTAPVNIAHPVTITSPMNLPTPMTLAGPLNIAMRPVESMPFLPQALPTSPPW
Briefly: competition with a labelled probe. The following applies: 50-fold excess competitor, betaA probe, at least 7 G needed; EMSA buffer; competitors at 50-fold molar excess; protein translated in vitro; residues 1-555. A general note: A gel shift assay detects complexes by their altered migration in electrophoresis.

The subject of data set [2] is SP1, erythrocyte nuclear extract (Gallus gallus (chicken), adult erythrocytes). Briefly: EMSA supershift. Particulars: EMSA buffer, competitors at 50-fold molar excess, protein in an extract, label: 32P (probe).
The target in data set [3] is SP3, erythrocyte nuclear extract (Gallus gallus (chicken), adult erythrocytes) (UniProt Q90WR8). Briefly: EMSA supershift. Particulars: EMSA buffer, competitors at 50-fold molar excess, protein in an extract, label: 32P (probe).
For data set [4], the target named is T2, VEZF1 (BGP1), erythrocyte nuclear extract (Gallus gallus (chicken), adult erythrocytes) (UniProt I6LDD9).
T2 sequence (looked up, limits assumed): T1 sequence (looked up)
In words: EMSA supershift. Particulars: EMSA buffer, competitors at 50-fold molar excess, protein in an extract, label: 32P (probe).

Data set [5] addresses T2, VEZF1 (BGP1), erythrocyte nuclear extract (Gallus gallus (chicken), adult erythrocytes). In words: DNA affinity chromatography + MS/MS. The following applies: eluted at 400 mM KCl; protein in an extract.
Data set [6] has as its target T3, ZF5, erythrocyte nuclear extract (Gallus gallus (chicken), adult erythrocytes) (UniProt Q92010).
T3 sequence (looked up, limits assumed): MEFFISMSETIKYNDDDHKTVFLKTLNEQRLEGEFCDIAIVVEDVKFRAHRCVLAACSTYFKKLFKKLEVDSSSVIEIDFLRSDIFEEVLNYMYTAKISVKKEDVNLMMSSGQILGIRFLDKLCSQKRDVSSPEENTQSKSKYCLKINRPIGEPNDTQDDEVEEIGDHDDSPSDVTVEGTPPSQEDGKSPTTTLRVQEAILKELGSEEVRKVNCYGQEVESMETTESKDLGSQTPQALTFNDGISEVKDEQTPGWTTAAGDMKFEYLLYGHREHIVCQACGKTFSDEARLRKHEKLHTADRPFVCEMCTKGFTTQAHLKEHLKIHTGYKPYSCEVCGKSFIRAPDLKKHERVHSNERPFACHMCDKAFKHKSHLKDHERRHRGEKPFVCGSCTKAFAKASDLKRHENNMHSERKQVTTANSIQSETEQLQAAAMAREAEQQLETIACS
In words: DNA affinity chromatography + MS/MS. Particulars: eluted at 400 mM KCl; protein in an extract.

For data set [7], the system named is SP1, erythrocyte nuclear extract (Gallus gallus (chicken), adult erythrocytes). In words: DNA affinity chromatography + MS/MS. Particulars: eluted at 400 mM KCl; protein in an extract.
The target in data set [8] is SP3, erythrocyte nuclear extract (Gallus gallus (chicken), adult erythrocytes) (UniProt Q90WR8). Briefly: DNA affinity chromatography + MS/MS. Particulars: eluted at 400 mM KCl; protein in an extract.

On to “AATTGCAGAGCTGGGAATCGGGGGGCGGGTGGTGGTGTGG (double strand) [glo 6G]”, for which the binding result in data set [1] is “binds more weakly”.
For the sequence “AATTGCAGAGCTGGGAATCGGGGGGGGGGGGGGGGCGGGTGGTGGTGTGG (double strand) [glo wt (betaA-globin promoter, G16)]”, the binding result in data set [2], in data set [3] and in data set [4] was “binds” throughout.
As to “CCTGCAGACACCTGGGGGGATACGGGGAAAAAGCTTTAGG (double strand) [HS4 FV wt]”, the binding result in data set [4] is “binds”.
Regarding “AGGCGCGCCCCGGTCCGGCGCTCCCCCCGCATCCCCGAGCCGGGGCGCGCCT (double strand) [HS4 FIII wt]”, the binding result in data set [4] (unlabelled as competitor) is “binds”.
Turning to “AATTGCAGAGCTGGGAATCGGGGGGGCGGGTGGTGGTGTGG (double strand) [glo 7G]”, the binding result in data set [1] is “binds”.
On to “GGAGCTCACGGGGACAGCCCCCCCCCAAAGCCCCCAGGGA (double strand) [HS4 FI wt]”, for which the binding result in data set [2] (unlabelled as competitor), in data set [3] (unlabelled as competitor) and in data set [4] (unlabelled as competitor) was “binds” each time.
For the sequence “GATCGGTCCGGCGCTCCCCCCGCATCCCCGAGCCGGCA / GATCTGCCGGCTCGGGGATGCGGGGGGAGCGCCGGACC [FIII-DA affinity duplex]”, the binding result in data set [5] and in data set [6] was “binds” in each case.
“GATCTCACGGGGACAGCCCCCCCCCAAAGCCCCCA / GATCTGGGGGCTTTGGGGGGGGGCTGTCCCCGTGA [FI-DA affinity duplex]”: the binding result in data set [7], in data set [8], in data set [5] and in data set [6] was “binds” throughout.
